# Article PMC10009101
# The chains behind the UniProt entries cited, without tags or fusion partners.
# UniProt P60484: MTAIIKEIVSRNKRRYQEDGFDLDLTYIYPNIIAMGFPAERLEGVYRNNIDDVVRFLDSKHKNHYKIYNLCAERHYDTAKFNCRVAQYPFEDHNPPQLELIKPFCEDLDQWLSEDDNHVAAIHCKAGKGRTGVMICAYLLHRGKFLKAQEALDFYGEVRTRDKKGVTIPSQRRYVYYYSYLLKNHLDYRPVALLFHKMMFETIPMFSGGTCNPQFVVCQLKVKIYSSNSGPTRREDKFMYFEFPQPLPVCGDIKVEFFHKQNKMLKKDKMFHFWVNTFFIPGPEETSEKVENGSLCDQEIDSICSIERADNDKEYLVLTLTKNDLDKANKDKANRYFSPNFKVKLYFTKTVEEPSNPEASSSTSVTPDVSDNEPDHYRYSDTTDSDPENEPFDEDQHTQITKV
# UniProt O94972: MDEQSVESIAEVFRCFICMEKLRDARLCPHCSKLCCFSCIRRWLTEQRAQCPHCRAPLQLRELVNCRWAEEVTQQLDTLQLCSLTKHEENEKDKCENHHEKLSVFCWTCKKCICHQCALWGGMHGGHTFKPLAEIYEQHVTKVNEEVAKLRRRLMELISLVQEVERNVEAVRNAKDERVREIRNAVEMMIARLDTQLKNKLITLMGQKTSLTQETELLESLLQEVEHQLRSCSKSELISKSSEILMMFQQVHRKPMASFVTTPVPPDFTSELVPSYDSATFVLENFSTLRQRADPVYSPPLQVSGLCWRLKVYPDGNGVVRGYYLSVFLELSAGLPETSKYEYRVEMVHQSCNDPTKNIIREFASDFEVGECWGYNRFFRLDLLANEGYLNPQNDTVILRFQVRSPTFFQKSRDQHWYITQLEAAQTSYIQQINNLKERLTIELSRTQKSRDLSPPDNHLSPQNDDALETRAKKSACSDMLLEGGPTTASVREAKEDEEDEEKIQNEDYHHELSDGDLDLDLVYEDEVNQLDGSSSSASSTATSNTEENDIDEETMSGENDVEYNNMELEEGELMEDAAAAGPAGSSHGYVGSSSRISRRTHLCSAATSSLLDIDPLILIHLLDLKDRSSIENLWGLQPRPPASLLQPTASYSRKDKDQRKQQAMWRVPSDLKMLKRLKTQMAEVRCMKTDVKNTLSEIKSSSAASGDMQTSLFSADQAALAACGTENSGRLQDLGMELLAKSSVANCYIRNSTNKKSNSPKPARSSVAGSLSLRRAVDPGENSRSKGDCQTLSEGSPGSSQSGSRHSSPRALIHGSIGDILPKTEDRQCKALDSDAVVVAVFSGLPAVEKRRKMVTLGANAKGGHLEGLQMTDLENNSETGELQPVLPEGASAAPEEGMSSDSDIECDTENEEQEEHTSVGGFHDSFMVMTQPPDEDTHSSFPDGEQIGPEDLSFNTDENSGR
# No constants are given. Whether binding was seen depends on the method and setting. Binding seen in cells or lysates may run through a third protein. Some entries that bind do so weakly or less than the wild type.
# Target: PTEN (human (endogenous in MOLT-4)) (UniProt P60484)
# Experiment: co-IP; MOLT-4 lysate in RIPA buffer (50 mM Tris-HCl pH 7.5, 150 mM NaCl, 1% NP-40, 1 mM EDTA, 0.25% sodium deoxycholate); 1 ug antibody (anti-PTEN or anti-TRIM37; IgG as negative control) overnight at 4°C, protein A/G Plus-agarose, five washes with RIPA, Western blot
substance,measurement,value
TRIM37 (from UniProt O94972 1-964),binding,binds
